In PMC7018950:
Results are given in words; binding and its absence hold for the method and conditions named. Binding can be weak; no strength is given. For some assays here: Sequences can lack the tags named with a protein. For some assays here: In cells and extracts the contact can be indirect.

Tests used:
[1] = biological target: T1, AtCHS (GAL4 two-hybrid fusion) (Arabidopsis thaliana) (UniProt P13114); assay: two-hybrid; GAL4-based (Matchmaker Gold), S. cerevisiae Y2H Gold; fusions with the GAL4 activation and DNA-binding domains; growth on -WL, -WLH and -WLHAde
T1 sequence: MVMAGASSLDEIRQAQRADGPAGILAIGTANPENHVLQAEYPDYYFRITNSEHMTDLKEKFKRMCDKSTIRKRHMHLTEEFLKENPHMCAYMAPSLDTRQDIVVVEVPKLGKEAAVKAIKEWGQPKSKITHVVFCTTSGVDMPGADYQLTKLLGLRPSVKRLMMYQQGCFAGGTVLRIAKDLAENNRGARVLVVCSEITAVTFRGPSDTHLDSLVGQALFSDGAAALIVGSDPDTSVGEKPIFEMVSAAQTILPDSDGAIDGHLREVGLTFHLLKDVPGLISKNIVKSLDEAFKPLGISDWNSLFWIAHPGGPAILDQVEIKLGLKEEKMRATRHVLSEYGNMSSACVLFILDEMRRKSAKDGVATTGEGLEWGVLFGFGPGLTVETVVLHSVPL

[2] = biological target: T2, AmCHS (BiFC fusion) (Antirrhinum majus (snapdragon)) (UniProt P06515); assay: split reporter; BiFC in Nicotiana benthamiana leaf cells; NmVen210 and CVen210 fusions from pDOE-05, agroinfiltration, 25 °C for 2 days, confocal microscopy
T2 sequence: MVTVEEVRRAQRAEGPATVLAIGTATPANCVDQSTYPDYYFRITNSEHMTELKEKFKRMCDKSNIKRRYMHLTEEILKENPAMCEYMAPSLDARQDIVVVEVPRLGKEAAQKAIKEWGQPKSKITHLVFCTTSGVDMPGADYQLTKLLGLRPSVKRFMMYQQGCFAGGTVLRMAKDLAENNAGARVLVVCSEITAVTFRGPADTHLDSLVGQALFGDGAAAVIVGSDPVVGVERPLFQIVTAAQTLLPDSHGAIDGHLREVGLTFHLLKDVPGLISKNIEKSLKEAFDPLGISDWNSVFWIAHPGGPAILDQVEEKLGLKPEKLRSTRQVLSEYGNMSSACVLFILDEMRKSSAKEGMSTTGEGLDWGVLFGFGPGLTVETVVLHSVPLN

[3] = biological target: T3, GmCHS-1 (GAL4 two-hybrid fusion) (Glycine max (soybean)) (UniProt P24826); assay: two-hybrid; GAL4-based (Matchmaker Gold), S. cerevisiae Y2H Gold; fusions with the GAL4 activation and DNA-binding domains; growth on -WL, -WLH and -WLHAde
T3 sequence: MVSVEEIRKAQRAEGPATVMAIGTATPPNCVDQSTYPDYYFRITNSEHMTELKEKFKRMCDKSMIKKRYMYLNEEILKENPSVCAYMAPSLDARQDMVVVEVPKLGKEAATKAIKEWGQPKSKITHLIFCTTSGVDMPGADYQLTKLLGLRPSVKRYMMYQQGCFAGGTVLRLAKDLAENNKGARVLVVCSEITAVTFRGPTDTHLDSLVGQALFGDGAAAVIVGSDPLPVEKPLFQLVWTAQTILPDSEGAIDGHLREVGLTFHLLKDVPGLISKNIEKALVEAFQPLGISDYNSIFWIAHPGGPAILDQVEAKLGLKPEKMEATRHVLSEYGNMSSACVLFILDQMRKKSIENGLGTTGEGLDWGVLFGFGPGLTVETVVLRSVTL

[4] = biological target: T4, GmCHS-7 (GAL4 two-hybrid fusion) (Glycine max (soybean)) (UniProt P30081); assay: as above
T4 sequence: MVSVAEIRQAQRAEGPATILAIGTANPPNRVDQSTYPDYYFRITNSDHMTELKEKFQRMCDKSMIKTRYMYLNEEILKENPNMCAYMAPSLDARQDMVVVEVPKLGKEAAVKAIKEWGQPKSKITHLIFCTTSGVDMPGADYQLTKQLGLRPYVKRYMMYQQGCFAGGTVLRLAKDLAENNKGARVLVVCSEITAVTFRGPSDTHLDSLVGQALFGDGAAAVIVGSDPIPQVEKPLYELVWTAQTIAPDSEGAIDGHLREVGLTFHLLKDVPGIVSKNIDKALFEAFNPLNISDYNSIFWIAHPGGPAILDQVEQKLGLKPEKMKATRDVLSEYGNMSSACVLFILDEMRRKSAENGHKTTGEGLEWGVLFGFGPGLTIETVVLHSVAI

[5] = biological target: T5, GmCHS-1-CVen210 (Glycine max) (UniProt P24826); assay: split reporter; BiFC with NmVen210 and CVen210 fusions (pDOE-05) co-expressed in Nicotiana benthamiana leaf cells; CVen210 alone as control
T5 sequence: T3 sequence

[6] = biological target: T6, GmCHS-7-CVen210 (Glycine max) (UniProt P30081); assay: as above
T6 sequence: T4 sequence

[7] = biological target: T7, AmCHS-NmVen210 (Antirrhinum majus) (UniProt P06515); assay: as above
T7 sequence: T2 sequence

[8] = biological target: T8, His6-tagged snapdragon chalcone synthase (His6-AmCHS) (Antirrhinum majus) (UniProt P06515); assay: cross-linking; His6-AmCHIL (10 uM) and His6-AmCHS (5 uM) with BS3 (4 mM), pH 7.5, 5 min; SDS-PAGE, silver staining, immunoblots with anti-AmCHS and anti-AmCHIL IgG; both purified
T8 sequence: T2 sequence

[9] = biological target: T9, AmCHS (GAL4 two-hybrid fusion) (Antirrhinum majus (snapdragon)) (UniProt P06515); assay: two-hybrid; GAL4-based (Matchmaker Gold), S. cerevisiae Y2H Gold; fusions with the GAL4 activation and DNA-binding domains; growth on -WL, -WLH and -WLHAde
T9 sequence: T2 sequence

How did the binding [1] turn out when “InCHIL (GAL4 two-hybrid fusion) (Ipomoea nil (morning glory))” was run?
Its binding is “binds weakly”.

For “MpCHIL (GAL4 two-hybrid fusion) (Marchantia polymorpha)”, which binding [1] is on record?
The binding was “no binding”.

Which binding [2] does the source give for “AmCHIL (BiFC fusion) (Antirrhinum majus (snapdragon))” here?
The binding was “binds”.

For “GmCHIL (GAL4 two-hybrid fusion) (Glycine max (soybean))”, which binding [3] is on record?
Its binding is “binds”.

And the binding [4]?
The binding was “binds”.

Which binding [5] does the source give for GmCHIL-NmVen210 (Glycine max) here?
The binding was “binds”.

What about the binding [6] of the same substance?
Its binding is “binds”.

For AmCHIL-CVen210 (Antirrhinum majus), which binding [7] is on record?
Its binding is “binds”.

How did the binding [8] turn out when “His6-tagged snapdragon chalcone isomerase-like protein (His6-AmCHIL) (Antirrhinum majus)” was run?
Its binding is “binds”.

For “PpCHIL (GAL4 two-hybrid fusion) (Physcomitrella patens)”, which binding [1] is on record?
Its binding is “no binding”.

Which binding [9] does the source give for “AmCHIL (GAL4 two-hybrid fusion) (Antirrhinum majus (snapdragon))” here?
The binding was “binds”.
